Measured values published in patent EP2464369B1.
These are yes or no findings as the source states them, for the method shown. Some entries that bind do so weakly or less than the wild type.

Target: T1, Growth and Differentiation Factor-11 (GDF11) (UniProt O95390)
T1 sequence (looked up): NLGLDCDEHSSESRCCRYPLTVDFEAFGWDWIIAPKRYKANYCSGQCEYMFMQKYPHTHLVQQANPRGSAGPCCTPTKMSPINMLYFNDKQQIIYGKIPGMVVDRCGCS
Test: Biacore; Fc fusion captured by anti-hFc antibody, ligand injected

binding: binds
B1: ActRIIB(A24N 20-134)-hFc (Fc fusion, not shown: a dimerising Fc or GST)
chain: GRGENETRECIYYNANWELERTNQSGLERCEGEQDKRLHCYASWRNSSGTIELVKKGCWLDDFNCYDRQECVATEENPQVYFCCCEGNFCNERFTHLPEAGGPEVTYEPPPTAPT
